# Data from PMC7819943, “Rice protein-binding microarrays: a tool to detect cis-acting elements near promoter regions in rice”.
# Some of the results follow.
# Target: T1, OsSMF1 (Oryza sativa, UniProt Q6ZLB0 1-436)
# T1 sequence: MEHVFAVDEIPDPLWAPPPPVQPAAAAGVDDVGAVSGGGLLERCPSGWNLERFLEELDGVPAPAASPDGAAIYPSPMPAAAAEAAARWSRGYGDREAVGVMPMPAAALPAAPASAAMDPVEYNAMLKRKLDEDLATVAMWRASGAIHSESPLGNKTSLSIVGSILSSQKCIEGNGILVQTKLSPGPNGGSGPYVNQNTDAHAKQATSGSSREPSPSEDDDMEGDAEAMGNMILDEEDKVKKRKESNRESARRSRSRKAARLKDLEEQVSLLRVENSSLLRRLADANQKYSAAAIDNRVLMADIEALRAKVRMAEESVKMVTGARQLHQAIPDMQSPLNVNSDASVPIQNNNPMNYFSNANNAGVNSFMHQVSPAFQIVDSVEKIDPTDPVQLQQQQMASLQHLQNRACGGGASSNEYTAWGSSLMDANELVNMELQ
# Experiment: protein-binding microarray (RPBM); PBS, 2% BSA, 51.3 ng/ul salmon testes DNA, 50 uM zinc acetate, 200 nM TF, 25 C, 1 h; high values mean tight binding
# Conditions: protein: recombinant; tags: N-terminal polyhistidine and DsRed monomer fusion (pET32a); chain copies: 2; label: CyDye5-dUTP incorporated in the synthesized complementary strand; 3' TTTTT single-stranded linker to array surface; dsDNA, one strand shown
# Outline: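 Transcription factors, each fused N-terminally to a polyhistidine tag and DsRed, were expressed in E. coli BL21-CodonPlus and purified on Ni–NTA. A custom Agilent array was made double-stranded by primer extension with Cy5-dUTP and blocked with 2% BSA. It was incubated with 200 nM protein in PBS, 2% BSA, salmon testes DNA and 50 µM zinc acetate at 25 °C for 1 h, then washed. The binding signal is per-feature fluorescence intensity (arbitrary units) read on an Axon 4000B scanner.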
row,Sequence,binding signal
1,CGGCGTCGAGGGCGGAGTGGGAGACAGCGCCAGGGACGTGCGGAGTCACCTAGTGCAG,3910 fluorescence intensity (a.u.)
2,AGCCGTCTGGGATCTACGGTGGTTATGGTCGCGAGAGCTCCGGAGTCACCTAGTGCAG,3470 fluorescence intensity (a.u.)
3,AACACGAAAATGAAAGGGAGGGGCTTTCCTTAGCGATTAACGGAGTCACCTAGTGCAG,3830 fluorescence intensity (a.u.)
4,CAGTTCCCATCAACATCGTCCGTTTGATCTCGCGGCAGGGCGGAGTCACCTAGTGCAG,21500 fluorescence intensity (a.u.)
5,CTCCATCTTTGTTTATCCTTAAGCACCTAATTCATCATGTCGGAGTCACCTAGTGCAG,19100 fluorescence intensity (a.u.)
6,GGCCTCGACCTCCTCTGCCGTGACAAGGCCCTGCTGCCACCGGAGTCACCTAGTGCAG,3470 fluorescence intensity (a.u.)
7,TTCCACAGTGCGTGCTGCCATATGTAATCTAAATTGTCATCGGAGTCACCTAGTGCAG,3340 fluorescence intensity (a.u.)
8,ACTACTAACGTGTCACATCTTAGTCTACCCTCTCCTCTGACGGAGTCACCTAGTGCAG,6840 fluorescence intensity (a.u.)
9,GGCCCACTCGGCCAGCTTCCGCTGCGGCCCTGCCTGCCTGCGGAGTCACCTAGTGCAG,3280 fluorescence intensity (a.u.)
10,GTTCCAACTTCCAAGCAAAGTACACGTGTAGTTCCATATTCGGAGTCACCTAGTGCAG,9640 fluorescence intensity (a.u.)
11,CGCCGCGTGGTTCTTCGTTTCGTTTGTCTCGCCATCTCTTCGGAGTCACCTAGTGCAG,3470 fluorescence intensity (a.u.)
12,ATGAATCCTGACGCATTGGTTTCAGGTGATTACACCTTTTCGGAGTCACCTAGTGCAG,4510 fluorescence intensity (a.u.)
13,TAGTGGGGAGGCGGTGGTGCTGCGGGGAGGGAGGGAGCACCGGAGTCACCTAGTGCAG,3800 fluorescence intensity (a.u.)
14,CTCCTCCATTGCCAGTTGCTACTCATCCTCATCCTCTCCACGGAGTCACCTAGTGCAG,22600 fluorescence intensity (a.u.)
15,GGGAGCGGCGGAGGAGGAGGGCGCGGCGGCGGTGGGGTGGCGGAGTCACCTAGTGCAG,4920 fluorescence intensity (a.u.)
16,ATTGCTGTATGCGTCCATCTGCAAGCAATTCAAAACCAGCCGGAGTCACCTAGTGCAG,26900 fluorescence intensity (a.u.)
17,CCTTGATGATTGAACCAGTCAGCCCCAACATCTCTATAAACGGAGTCACCTAGTGCAG,3260 fluorescence intensity (a.u.)
18,TGGCGACCTCAGCTTTGCATCATCACTACTTCAGTCCAGCCGGAGTCACCTAGTGCAG,4200 fluorescence intensity (a.u.)
19,CCGTCTTCTCTGCCGATCGATGACGATGAGCTTCTCCTCCCGGAGTCACCTAGTGCAG,4480 fluorescence intensity (a.u.)
20,AATGTGCTATACAATTTTAATATAGAACATGTCACCATCCCGGAGTCACCTAGTGCAG,3660 fluorescence intensity (a.u.)
21,GTTGATCAAATTCATACGTGTGCATAGCAATTTCCCAAATCGGAGTCACCTAGTGCAG,5100 fluorescence intensity (a.u.)

row,Sequence,binding signal
1,GTGACAGCCAGCCAGCCACTGCGTCACATCGCTTGTGAGTCGGAGTCACCTAGTGCAG,3300 fluorescence intensity (a.u.)
2,CCTTTTGTCCATCTATACATGTAGGGAGGTGAGTGAAGTGCGGAGTCACCTAGTGCAG,4460 fluorescence intensity (a.u.)
3,CCACATTCCGCCAGCTGGCCAGCTCGAGCCACCTCATCAGCGGAGTCACCTAGTGCAG,5650 fluorescence intensity (a.u.)
4,TCTCCTCCCTCGTTTCTCCTGACACGCTCTCATCCTACAACGGAGTCACCTAGTGCAG,3370 fluorescence intensity (a.u.)
5,TTTTAAAGAAAGAATTAGATAATATTGCTGACGAGGACTGCGGAGTCACCTAGTGCAG,10100 fluorescence intensity (a.u.)
6,TCGAGGTATCACGTACATATATATCTCCTACCTTTCTCTACGGAGTCACCTAGTGCAG,3200 fluorescence intensity (a.u.)
7,CGAGCTGATCCCCGCGGATGTAGCGACGGCGTGGACCTCCCGGAGTCACCTAGTGCAG,3780 fluorescence intensity (a.u.)
8,TTCCGTCGTGGTCATCATTCCAGTGAACTGTTTAGCTGTTCGGAGTCACCTAGTGCAG,4370 fluorescence intensity (a.u.)
9,CCTGGACCATATATATACGATGAAGGCCCATTTAGTAGGACGGAGTCACCTAGTGCAG,22200 fluorescence intensity (a.u.)
10,CTCCAATGACTAAGCTGAGTTCATTCCAGCTAGTTCCCAACGGAGTCACCTAGTGCAG,4240 fluorescence intensity (a.u.)
11,ACATGTGGGCCCTACATCCCAGCCGGTCCACGTCGGTTCACGGAGTCACCTAGTGCAG,8510 fluorescence intensity (a.u.)
12,GTGTAAATATGAAATACATTCTCACAAAATCTTTTGTTCACGGAGTCACCTAGTGCAG,16300 fluorescence intensity (a.u.)
13,AACAAATAAGAGAGAGAAAGAACATCAAATCTCTCTTTCTCGGAGTCACCTAGTGCAG,16900 fluorescence intensity (a.u.)
14,GAGTGCCATGTATGCATCCACGTAGGATCAAAACTGCCCTCGGAGTCACCTAGTGCAG,17000 fluorescence intensity (a.u.)
15,ACTTGTTATCTGGCCTCTCCGCCATGTGACCCATGGAAATCGGAGTCACCTAGTGCAG,3250 fluorescence intensity (a.u.)
16,AAGGCGGAGGAGGAGTTGTGGCCGACTGACTTTGGCCCGTCGGAGTCACCTAGTGCAG,3150 fluorescence intensity (a.u.)
17,AACAGTTAGTGATCGCTAGATCCAGCAATAAACAACCCAGCGGAGTCACCTAGTGCAG,33100 fluorescence intensity (a.u.)
18,AAAATTTAAAATTGGGTACATCAACACAGGCAAACCATATCGGAGTCACCTAGTGCAG,3200 fluorescence intensity (a.u.)
19,AGTCAATCGTGCCAGTCTGACTCGAATCGTCGGTCGTTCTCGGAGTCACCTAGTGCAG,3590 fluorescence intensity (a.u.)
20,GGAATTGTGTTCTGTCTATTGATATGAGTGACTAATTGACCGGAGTCACCTAGTGCAG,3620 fluorescence intensity (a.u.)
21,GTCTTGCTGCTGACGCCAATGCGTTCCGGGAATTCTTCAACGGAGTCACCTAGTGCAG,4950 fluorescence intensity (a.u.)

# Laid out differently: entries from further up
row | Sequence | binding signal
10 | CTCCAATGACTAAGCTGAGTTCATTCCAGCTAGTTCCCAACGGAGTCACCTAGTGCAG | 4240 fluorescence intensity (a.u.)
16 | AAGGCGGAGGAGGAGTTGTGGCCGACTGACTTTGGCCCGTCGGAGTCACCTAGTGCAG | 3150 fluorescence intensity (a.u.)
